Laboratory results taken from article PMC5459885, “Relaxin-Family Peptide Receptors 1 and 2 Are Fully Functional in the Bovine” (Frontiers in Physiology, 2017).

Experiment: INSL3 concentration in bovine follicular fluid (TRFIA)

B1: bovine INSL3 (protein, UniProt O77801 22-66; O77801 27-66; O77801 107-132, looked up)
Insulin-like 3 B' chain: GPAAAQEAPEKLCGHHFVRALVRLCGGPRWSSEEDGRPVAGGDRE
Insulin-like 3 B chain: QEAPEKLCGHHFVRALVRLCGGPRWSSEEDGRPVAGGDRE
Insulin-like 3 A chain: ATAINPARHCCLSGCTRQDLLTLCPH
notes: bovine insulin-like peptide 3, cognate ligand of bovine RXFP2
3–6 mm (n = 115) vs 6–10 mm (n = 17)
  difference in total INSL3 per follicle, medium-sized vs large follicles: not significantly different
Large follicles (6–10 mm), assuming antral fluid volume 180 μl
  in vivo concentration of INSL3 in follicular fluid: 136 ng/mL
Large follicles (diameter 6–10 mm), n = 17
  Total INSL3 per follicle: 24.5 ± 43.1 ng
medium-sized follicles (3–6 mm), assuming antral fluid volume 35 μl
  in vivo concentration of INSL3 in follicular fluid: 376 ng/mL
medium-sized follicles (diameter 3–6 mm), n = 115
  Total INSL3 per follicle: 13.2 ± 13.8 ng
